In patent EP0791056B1, “LIPID-CLEAVAGE ENZYME COMPLEX” (priority 1994, dated 1996):

System: LCE
Assay: LCE assay: cleavage of [14C]-AZT-DMDOPE/AZT-DMDOPE to DMDOP by fractions of human blood cells
Assay type: biochemical
Description: Das Pipettierschema ist in der folgenden Tabelle angegeben. Tabelle
Zur Untersuchung der enzymatischen Spaltung in Abhängigkeit von der Substratkonzentration wurde eine Substratstammlösung von 0.98 nmol [^14C]-AZT-DMDOPE und 0.7 nmol AZT-DMDOPE/80 µl Aqua bidest. im LCE-Assay angesetzt. Die verschiedenen Substratkonzentrationen im LCE-Assay wurden durch kontinuierliche Verdopplung bzw. Halbierung des Volumens an Substratlösung eingestellt. Die Ansätze wurden in Glasröhrchen (5 ml) vorgelegt und durch Zugabe der Substratlösung gestartet. Die Inkubation wurde bei 37 °C im Wasserbad unter leichtem Schütteln durchgeführt.
Die Reaktionsansätze des LCE-Assays wurden nach entsprechender Inkubationszeit dem Wasserbad entnommen, und die Reaktion durch Zugabe von 750 µl 2-Propanol gestoppt. Nach gründlicher Durchmischung wurden die Ansätze anschließend mit 700 µl auf Raumtemperatur erwärmtem n-Heptan versetzt. Die Ansätze wurden erneut für 30 sec gut gemischt und zur Beschleunigung der Phasentrennung in der Minifuge T bei 3200 rpm für 15 min bei Raumtemperatur zentrifugiert. […]
Die Quantifizierung der enzymatischen Spaltung von AZT-DMDOPE wurde durch eine zweistufge Extraktion des Metaboliten DMDOP mit n-Heptan und anschließender Adsorption von Resten des Substrates AZT-DMDOPE an Kieselgel 60 H durchgeführt. […]

SMILES: CCCCCCCCCCCCSCC(COP(=O)(O)OC[C@H]1O[C@@H](n2cc(C)c(=O)[nH]c2=O)C[C@@H]1N=[N+]=[N-])OCCCCCCCCCC (some centres unmarked) [AZT-DMDOPE, (3'-Desoxy-3'-azidothymidin)-5'-phosphorsäure-(3-dodecyl-mercapto-2-decyloxy)-propylester]
- AZT-DMDOPE-spaltende Aktivität um Faktor kleiner als in den Membranfraktionen (Zellhomogenate vs. Membranfraktionen stimulierter humaner PBL): 1.59
- AZT-DMDOPE-spaltende Aktivität um Faktor kleiner als in den Membranfraktionen (Zytosolfraktionen vs. Membranfraktionen stimulierter humaner PBL): 6.3
